In PMC12561408, “AI‐Driven De Novo Design of Ultra Long‐Acting GLP‐1 Receptor Agonists” (Advanced Science, 2025):

Details: rat, in vivo, 0.05 mg/kg
Description: B) half‐life (T1/2). C) the maximum plasma concentration (Cmax). […] F) time to Maximum Concentration (Tmax). […] Data were analyzed with the two‐sided Student's unpaired t test. ^* p < 0.05, ^** p < 0.01, ^*** p < 0.001.
Plasma samples were analyzed using LC‐MS/MS (Waters XEVO TQ‐XS), and pharmacokinetic parameters such as T1/2, Cmax, Tmax, AUC0‐t, and MRT0‐t were calculated using WinNonlin. The sample preparation and detailed information of LC‐MS/MS are shown in Table S5 (Supporting Information).

MRT0-t (0–168 h): 14.21 h
SMILES: CC[C@H](C)[C@H](NC(=O)[C@H](Cc1ccccc1)NC(=O)[C@H](CCC(=O)O)NC(=O)[C@H](CCCCNC(=O)COCCOCCNC(=O)COCCOCCNC(=O)CC[C@H](NC(=O)CCCCCCCCCCCCCCCCC(=O)O)C(=O)O)NC(=O)[C@H](C)NC(=O)[C@H](C)NC(=O)[C@H](CCC(N)=O)NC(=O)CNC(=O)[C@H](CCC(=O)O)NC(=O)[C@H](CC(C)C)NC(=O)[C@H](Cc1ccc(O)cc1)NC(=O)[C@H](CO)NC(=O)[C@H](CO)NC(=O)[C@@H](NC(=O)[C@H](CC(=O)O)NC(=O)[C@H](CO)NC(=O)[C@@H](NC(=O)[C@H](Cc1ccccc1)NC(=O)[C@@H](NC(=O)CNC(=O)[C@H](CCC(=O)O)NC(=O)C(C)(C)NC(=O)[C@@H](N)Cc1cnc[nH]1)[C@@H](C)O)[C@@H](C)O)C(C)C)C(=O)N[C@@H](C)C(=O)N[C@@H](Cc1c[nH]c2ccccc12)C(=O)N[C@@H](CC(C)C)C(=O)N[C@H](C(=O)N[C@@H](CCCNC(=N)N)C(=O)NCC(=O)N[C@@H](CCCNC(=N)N)C(=O)NCC(=O)O)C(C)C [Semaglutide]
